Consider four substances from patent publication US10869931B2, “Polyethylene glycol-modified angiogenesis inhibitor HM-1 and application thereof” (NANJING ANJI BIOLOGICAL TECHNOLOGY CO.,LTD, priority 2016, dated 2020).

The subject of this test is carrageenan-induced toe swelling in SD rats. As to the kind of experiment: Carrageenan-induced acute toe swelling in rats. It is filed as in vivo, rat. On the set-up: unit not given here. As for the experimental part:
SD rats were divided into blank model group, dexamethasone-positive group (5 mg/kg) and mPEG-HM-1 test group. The drug was administered once a day, and the model group was given the same volume of normal saline for 3 days and fed normally. At the first hour after the last administration, 0.1 mL of 1% carrageenan was injected subcutaneously into the right hind paw of the rats to induce inflammation. The volume of the foot was measured at 1 h, 3 h, 5 h, and 7 h after inflammation. The degree of swelling of the foot was calculated according to the following formula: the degree of swelling of the foot (mL)=the volume of the foot after inflammation−the volume before inflammation. Record the number of milliliters of spilled liquid (method: use the ballpoint pen to circle as the measurement mark at the protruding point of the right joint, and then put the right hind foot of each mouse into the volume measuring device, so that the hind limb is exposed outside the cylinder, and the depth of the immersion was determined by coinciding the circle with the liquid surface. After the foot enters the liquid, the liquid level rises, and the volume of the overflow liquid is the volume of the right hind foot of the rat, and the normal volume of the right hind foot of each mouse is sequentially determined).

[1] abbreviates: 20 mg/kg once a day for 3 days, 1 h after carrageenan.
[2] abbreviates: 20 mg/kg once a day for 3 days, 3 h after carrageenan.
Where [3] appears, read: 20 mg/kg once a day for 3 days, 5 h after carrageenan.
Setting [4] is: 20 mg/kg once a day for 3 days, 7 h after carrageenan.
Where [5] appears, read: 80 mg/kg once a day for 3 days, 1 h after carrageenan.
Setting [6] is: 80 mg/kg once a day for 3 days, 3 h after carrageenan.
[7] abbreviates: 80 mg/kg once a day for 3 days, 5 h after carrageenan.
Where [8] appears, read: 80 mg/kg once a day for 3 days, 7 h after carrageenan.

The source gives many values for each of these; only a part stands here.

Regarding “mPEG-bALD5k-Arg-Gly-Ala-Asp-Arg-Ala-Gly-Gly-Gly-Gly-Arg-Gly-Asp (RGADRAGGGGRGD; mPEG-butyraldehyde 5 kDa; printed: Arg-Gly-Ala-Asp-Arg-Ala-Gly-Gly-Gly-Gly-Arg-Gly-Asp) [mPEG-bALD5k-HM-1]”, the Swelling (10 mg/kg once a day for 3 days, 1 h after carrageenan) is reported as 0.23 ± 0.11; the Swelling (10 mg/kg once a day for 3 days, 3 h after carrageenan) is recorded as 0.34 ± 0.12; the Swelling (10 mg/kg once a day for 3 days, 5 h after carrageenan) amounted to 0.40 ± 0.14; the Swelling (10 mg/kg once a day for 3 days, 7 h after carrageenan) is 0.32 ± 0.11; the Swelling under setting [1] was determined as 0.22 ± 0.13; the Swelling under setting [2] is 0.33 ± 0.18. In addition, the Swelling runs as follows: under setting [3], 0.36 ± 0.15; under setting [4], 0.34 ± 0.12.

“mPEG-bALD10k-Arg-Gly-Ala-Asp-Arg-Ala-Gly-Gly-Gly-Gly-Arg-Gly-Asp (RGADRAGGGGRGD; mPEG-butyraldehyde 10 kDa; printed: Arg-Gly-Ala-Asp-Arg-Ala-Gly-Gly-Gly-Gly-Arg-Gly-Asp) [mPEG-bALD10k-HM-1]” returned a Swelling under setting [1] of 0.22 ± 0.14; a Swelling under setting [2] of 0.32 ± 0.15; a Swelling under setting [3] of 0.41 ± 0.17; a Swelling under setting [4] of 0.31 ± 0.12; a Swelling (40 mg/kg once a day for 3 days, 1 h after carrageenan) of 0.20 ± 0.12; a Swelling (40 mg/kg once a day for 3 days, 3 h after carrageenan) of 0.32 ± 0.22. Further, the Swelling is on record as 0.38 ± 0.14 (40 mg/kg once a day for 3 days, 5 h after carrageenan) and 0.32 ± 0.11 (40 mg/kg once a day for 3 days, 7 h after carrageenan).

On to “mPEG-bALD20k-Arg-Gly-Ala-Asp-Arg-Ala-Gly-Gly-Gly-Gly-Arg-Gly-Asp (RGADRAGGGGRGD; mPEG-butyraldehyde 20 kDa; printed: Arg-Gly-Ala-Asp-Arg-Ala-Gly-Gly-Gly-Gly-Arg-Gly-Asp) [mPEG-bALD20k-HM-1]”, for which the Swelling reads like this: under setting [5], 0.27 ± 0.11; under setting [6], 0.34 ± 0.10; under setting [7], 0.41 ± 0.12; under setting [8], 0.33 ± 0.17.

Substance “mPEG-bALD40k-Arg-Gly-Ala-Asp-Arg-Ala-Gly-Gly-Gly-Gly-Arg-Gly-Asp (RGADRAGGGGRGD; mPEG-butyraldehyde 40 kDa; printed: Arg-Gly-Ala-Asp-Arg-Ala-Gly-Gly-Gly-Gly-Arg-Gly-Asp) [mPEG-bALD40k-HM-1]” yielded a Swelling under setting [5] of 0.28 ± 0.15; a Swelling under setting [6] of 0.33 ± 0.12; a Swelling under setting [7] of 0.45 ± 0.16; a Swelling under setting [8] of 0.37 ± 0.18; a Swelling (160 mg/kg once a day for 3 days, 1 h after carrageenan) of 0.25 ± 0.12; a Swelling (160 mg/kg once a day for 3 days, 3 h after carrageenan) of 0.36 ± 0.13. For the same substance, the Swelling by setting is: (160 mg/kg once a day for 3 days, 5 h after carrageenan) 0.46 ± 0.17; (160 mg/kg once a day for 3 days, 7 h after carrageenan) 0.36 ± 0.19.
